# Laboratory results: patent US20080064071A1, “Zwitterionic detergents for the storage and use of DNA polymerases” (priority 2006, published 2008)
# At least one compound was matched to its structure with a doubt left.
# System: Pfu and Pfu fusion DNA polymerase
# Assay: Endpoint PCR, enhancing detergents and detergent combinations (Table 2)
# Assay type: biochemical, Pyrococcus furiosus
# Settings: combination CHAPSO (0.05, 0.1%) + Anz. 3-12
structure (smiles),measurement,value
"CCCCCCCCCCCC[N+](C)(C)CCCS(=O)(=O)[O-] [Anzergent 3-12, n-Dodecyl-N,N-dimethyl-3-ammonio-1-propanesulfonate]","Optimal range, concentration of each detergent in combination",Anz. 3-12 (O.05-0.4%)
